We go through 42 sequences from article PMC7819943, “Rice protein-binding microarrays: a tool to detect cis-acting elements near promoter regions in rice”.

The chains behind the UniProt entries cited, without tags or fusion partners.
UniProt Q0JBA9, entry or part of it: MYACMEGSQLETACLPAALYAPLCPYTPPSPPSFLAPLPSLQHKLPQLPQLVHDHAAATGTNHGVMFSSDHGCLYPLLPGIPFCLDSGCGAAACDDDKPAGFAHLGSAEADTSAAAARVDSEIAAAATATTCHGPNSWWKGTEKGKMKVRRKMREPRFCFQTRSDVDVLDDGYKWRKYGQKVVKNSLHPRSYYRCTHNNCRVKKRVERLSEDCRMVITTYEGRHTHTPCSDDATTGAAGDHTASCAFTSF

The other results are listed elsewhere or left out.

This test has as its target OsWRKY34 (Oryza sativa, UniProt Q0JBA9 1-250). Kind of test: protein-binding microarray (RPBM); PBS, 2% BSA, 51.3 ng/ul salmon testes DNA, 50 uM zinc acetate, 200 nM TF, 25 C, 1 h; high values mean tight binding. Conditions: protein: recombinant; tags: N-terminal polyhistidine and DsRed monomer fusion (pET32a); label: CyDye5-dUTP incorporated in the synthesized complementary strand; 3' TTTTT single-stranded linker to array surface; dsDNA, one strand shown. In short, it runs like this:
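Using Ni–NTA, transcription factors fused N-terminally to polyhistidine and DsRed were purified after expression in E. coli BL21-CodonPlus. These were incubated at 200 nM with a blocked, double-stranded custom Agilent array for 1 h at 25 °C in a buffer containing 50 µM zinc acetate, and the array was washed. The binding signal is per-feature fluorescence intensity (arbitrary units) on an Axon 4000B scanner.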
“AGTTTGATTTACAAGTGCTTTCATATGTATGTTTGTTTTACGGAGTCACCTAGTGCAG”: the binding signal was 11000 fluorescence intensity (a.u.).

For the sequence “TTCCCGCGCCACGGCGCTGGACGCGCTCGTTGACTCCGTCCGGAGTCACCTAGTGCAG”, the binding signal was 9240 fluorescence intensity (a.u.).

Consider “AGATTGATCATTTGCATGTACCACTTCCCTTTTTCTCCCTCGGAGTCACCTAGTGCAG”, for which the binding signal is 9390 fluorescence intensity (a.u.).

As for “CTTAGCTTGTTTTTATCAGTTCTTACCTTTCTTGATTCTCCGGAGTCACCTAGTGCAG”, the binding signal is 8070 fluorescence intensity (a.u.).

On to “ATGTAAACTGTGTAATTAATTTTTCTTTTTATCTATATTTCGGAGTCACCTAGTGCAG”, for which the binding signal is 9150 fluorescence intensity (a.u.).

As for “GTACGTCCGTCTTCTTTCGATCCGCCGTGCCTTTTCCTTCCGGAGTCACCTAGTGCAG”, the binding signal is 8610 fluorescence intensity (a.u.).

Take “GGGGCGGATCGTGGAGGACGAGCGGTCGCCGGGGCGGCCTCGGAGTCACCTAGTGCAG”: the binding signal was 8910 fluorescence intensity (a.u.).

On to “ATTGTTTGTCCCGTCCCTACATCACGCCAAAAGTCACAACCGGAGTCACCTAGTGCAG”, for which the binding signal is 11800 fluorescence intensity (a.u.).

For the sequence “TACAACTCAGCTCATTCCACTTCAAAAGTCTACTACTTTTCGGAGTCACCTAGTGCAG”, the binding signal was 9280 fluorescence intensity (a.u.).

In the case of “CAGGATGAGACCTAAATATTGTTGTGCTGCTTTGGATTATCGGAGTCACCTAGTGCAG”, the binding signal was 8420 fluorescence intensity (a.u.).

Turning to “CTATGGTAGGTAGGGTTTTCGTGTTGCGAGGTTACAGGGGCGGAGTCACCTAGTGCAG”, the binding signal was 12200 fluorescence intensity (a.u.).

On to “ATATATATATATATATATATACATACATATACACACACACCGGAGTCACCTAGTGCAG”, for which the binding signal was 8050 fluorescence intensity (a.u.).

With “GAACCTTATCCGTTTCTGCAACGCTACGCTGTGTTTCTCTCGGAGTCACCTAGTGCAG”, the binding signal was 10500 fluorescence intensity (a.u.).

Turning to “GAGCTATACTATTATTATCTTACTCTAATAGCTATCTACTCGGAGTCACCTAGTGCAG”, the binding signal was 8550 fluorescence intensity (a.u.).

As for “TATCCAAAAAAACTCTACTACTTGCCCTCGCTTGCACGTCCGGAGTCACCTAGTGCAG”, the binding signal was 8110 fluorescence intensity (a.u.).

On to “TCAAAATGTTTAACGCCGTTGACTTTTTAGCACATTTTTGCGGAGTCACCTAGTGCAG”, for which the binding signal is 33000 fluorescence intensity (a.u.).

For “AAATTACAGGCTCATCGTTTCGTCTAATTATAAATCATAACGGAGTCACCTAGTGCAG”, the binding signal is 8360 fluorescence intensity (a.u.).

On to “TATATGTCACCTCTACTGGATTTGTGTAGTGTATCATATTCGGAGTCACCTAGTGCAG”, for which the binding signal is 9060 fluorescence intensity (a.u.).

As to “GATTCAATCAGACGTTCAGTTTTTCTTCTTTCTTTTTTTTCGGAGTCACCTAGTGCAG”, the binding signal is 8170 fluorescence intensity (a.u.).

Consider “TTTTACTCTCCTTCTCATCCAAGCCACCACCCGTGAAAATCGGAGTCACCTAGTGCAG”, for which the binding signal was 10100 fluorescence intensity (a.u.).

“ACCGTTGACTTTTTAGCACATGATTGATCGTTCGTTTTATCGGAGTCACCTAGTGCAG”: the binding signal was 33800 fluorescence intensity (a.u.).

As to “CGGCGGCTACGACCACCGTCTTCCTCATCTCCGGCGTCGCCGGAGTCACCTAGTGCAG”, the binding signal is 10300 fluorescence intensity (a.u.).

On to “CCTTCATTTACTTTTGCTTATACTTGGTTTGTCTTTCTAACGGAGTCACCTAGTGCAG”, for which the binding signal is 8240 fluorescence intensity (a.u.).

On to “TCTCCTCGGCATTTCCGATTCTTGACTGGCTTGTTCTCTCCGGAGTCACCTAGTGCAG”, for which the binding signal was 8760 fluorescence intensity (a.u.).

Take “AATACCCAGAATCCACCACATCTCTTTAATAGTACCTACACGGAGTCACCTAGTGCAG”: the binding signal is 8020 fluorescence intensity (a.u.).

In the case of “GATCGGTTGTTCTCTTCTCGCCCATATCTTGCATCTCACACGGAGTCACCTAGTGCAG”, the binding signal is 11900 fluorescence intensity (a.u.).

Consider “CCGTCCTCCTCCTGCGCCGCCGTCCTCCTCCTGCTGACCCCGGAGTCACCTAGTGCAG”, for which the binding signal is 8090 fluorescence intensity (a.u.).

For the sequence “CAACCTCGCATCCCGACGTTCGTCCACGCAACTGCATGCACGGAGTCACCTAGTGCAG”, the binding signal was 8030 fluorescence intensity (a.u.).

“GCTGCTGCATCCAGTCAATAAGTCGTCTGTCCATTATCCTCGGAGTCACCTAGTGCAG”: the binding signal was 10900 fluorescence intensity (a.u.).

For “AATTGTCTCTAAAATTAATGTCTCTTTGTGTCATCTTGTTCGGAGTCACCTAGTGCAG”, the binding signal was 9820 fluorescence intensity (a.u.).

In the case of “GTTTAGTGTTGGTCATCCGTTTAATTATCCTCCAACTCACCGGAGTCACCTAGTGCAG”, the binding signal was 10100 fluorescence intensity (a.u.).

Regarding “CGAGGGAGATGGGACGGCGATGGTGACAGGGATGGAGGGACGGAGTCACCTAGTGCAG”, the binding signal was 8230 fluorescence intensity (a.u.).

As to “TTGACATCCTACGTTTGTGTTCCTCGTCACTCCACTATCGCGGAGTCACCTAGTGCAG”, the binding signal was 8040 fluorescence intensity (a.u.).

With “AATTCTCTTCTTTCTGACTGTCATGAGACCTATTTTGTATCGGAGTCACCTAGTGCAG”, the binding signal was 9560 fluorescence intensity (a.u.).

Turning to “TCCATTGACACCGGCACACGCACACGCACACCCGCACCGCCGGAGTCACCTAGTGCAG”, the binding signal is 8960 fluorescence intensity (a.u.).

On to “GATGCTGTTTCGTATATTCGGTGCTTCCCTTTTTATTTTTCGGAGTCACCTAGTGCAG”, for which the binding signal was 10200 fluorescence intensity (a.u.).

“TAACGTTTTCTTTTAAGTTGTGCGCTGTACTATTATTTTTCGGAGTCACCTAGTGCAG”: the binding signal was 9710 fluorescence intensity (a.u.).

“CACATACACACCACACATACTTTTGCAGAGCAGCAACATGCGGAGTCACCTAGTGCAG”: the binding signal was 8370 fluorescence intensity (a.u.).

In the case of “TCACTTCGCACATTAACTCTCTCTCTCTCTCCATTTTCTTCGGAGTCACCTAGTGCAG”, the binding signal is 11300 fluorescence intensity (a.u.).

With “TTCTCTCTCCCTGCCCTCAACCACCACCACCTCCTCGATCCGGAGTCACCTAGTGCAG”, the binding signal was 8180 fluorescence intensity (a.u.).

Take “ATATATGAGGGAGCCAATGTAGACTTATTCTGGCTCTCACCGGAGTCACCTAGTGCAG”: the binding signal was 9120 fluorescence intensity (a.u.).

As for “CCTACCACCACACGTACACCTCTCGTTCTTCTCGACTTCTCGGAGTCACCTAGTGCAG”, the binding signal is 15900 fluorescence intensity (a.u.).
